Experimental data as given in patent CN115368458A.
Results are given in words; binding and its absence hold for the method and conditions named. Some results given as binding are weak or reduced against the parent protein; the word gives no strength.

T1: hCD73-biotin (ACROBiosystems, CD3-H82E3) (human) (UniProt P21589)
T1 sequence (biotin (site not stated), looked up): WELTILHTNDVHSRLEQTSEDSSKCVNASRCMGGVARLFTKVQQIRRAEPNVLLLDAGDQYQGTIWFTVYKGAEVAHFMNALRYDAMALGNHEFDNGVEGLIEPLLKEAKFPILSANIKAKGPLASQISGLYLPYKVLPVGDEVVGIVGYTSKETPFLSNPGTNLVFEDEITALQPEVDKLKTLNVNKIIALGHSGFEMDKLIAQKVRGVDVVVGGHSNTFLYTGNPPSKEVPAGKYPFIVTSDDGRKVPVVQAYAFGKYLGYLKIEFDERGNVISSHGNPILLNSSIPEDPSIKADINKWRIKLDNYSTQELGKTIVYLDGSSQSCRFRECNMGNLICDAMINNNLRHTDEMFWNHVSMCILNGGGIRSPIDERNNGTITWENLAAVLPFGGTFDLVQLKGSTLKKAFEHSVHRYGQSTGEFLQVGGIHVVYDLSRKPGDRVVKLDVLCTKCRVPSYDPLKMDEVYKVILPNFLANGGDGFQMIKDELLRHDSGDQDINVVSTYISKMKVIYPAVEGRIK


Columns and labels:
[1] = target: T1, hCD73-biotin (ACROBiosystems, CD3-H82E3) (human); experiment: phage ELISA on antigen hCD73
[2] = target: 食蟹猴cCD73-His (近岸生物, Catalog CD3-C52H9) (cynomolgus monkey); experiment: ELISA, CD73-His coated at 2 μg/ml

Binder | binding [1] | binding [2]
scFv(P59-L1) (scFv) scFv: EVQLVESGGGLVQPGGSLRLSCAASGFSFDTYAMSWVRQAPGKGLEWVSAISGDTGVTGYADSVKGRFTISRDNSKNTLYLQMNSLRAEDTAVYYCARDRYAYLVDGWFDYWGQGTLVTVSSGGGGSGGGGSGGGGSDIQMTQSPSSLSASVGDRVTITCRASQGISSYLAWYQQKPGKAPKLLIYAASSLQSGVPSRFSGSGSGTDFTLTISSLQPEDFATYYCQQASYTGDPVTFGQGTKVEIK | binds | –
scFv(P59-L6) (scFv) scFv: EVQLVESGGGLVQPGGSLRLSCAASGFSFDTYAMSWVRQAPGKGLEWVSAISGDTGVTGYADSVKGRFTISRDNSKNTLYLQMNSLRAEDTAVYYCARDRYAYLVDGWFDYWGQGTLVTVSSGGGGSGGGGSGGGGSDIQMTQSPSSLSASVGDRVTITCRASQGISSYLAWYQQKPGKAPKLLIYAASSLQSGVPSRFSGSGSGTDFTLTISSLQPEDFATYYCAQYDFSFYGVTFGQGTKVEIK | binds | –
抗体P59-L17 (antibody, IgG1, V domains shown) VH: EVQLVESGGGLVQPGGSLRLSCAASGFSFDTYAMSWVRQAPGKGLEWVSAISGDTGVTGYADSVKGRFTISRDNSKNTLYLQMNSLRAEDTAVYYCARDRYAYLVDGWFDYWGQGTLVTVSS VL: DIQMTQSPSSLSASVGDRVTITCRASQGISSYLAWYQQKPGKAPKLLIYAASSLQSGVPSRFSGSGSGTDFTLTISSLQPEDFATYYCQTWSGWPDYLTFGQGTKVEIK | – | binds
scFv(P59-L12) (scFv) scFv: EVQLVESGGGLVQPGGSLRLSCAASGFSFDTYAMSWVRQAPGKGLEWVSAISGDTGVTGYADSVKGRFTISRDNSKNTLYLQMNSLRAEDTAVYYCARDRYAYLVDGWFDYWGQGTLVTVSSGGGGSGGGGSGGGGSDIQMTQSPSSLSASVGDRVTITCRASQGISSYLAWYQQKPGKAPKLLIYAASSLQSGVPSRFSGSGSGTDFTLTISSLQPEDFATYYCQTSDFFPNPVTFGQGTKVEIK | binds | –
scFv(P59-L17) (scFv) scFv: EVQLVESGGGLVQPGGSLRLSCAASGFSFDTYAMSWVRQAPGKGLEWVSAISGDTGVTGYADSVKGRFTISRDNSKNTLYLQMNSLRAEDTAVYYCARDRYAYLVDGWFDYWGQGTLVTVSSGGGGSGGGGSGGGGSDIQMTQSPSSLSASVGDRVTITCRASQGISSYLAWYQQKPGKAPKLLIYAASSLQSGVPSRFSGSGSGTDFTLTISSLQPEDFATYYCQTWSGWPDYLTFGQGTKVEIK | binds | –
